{"source": "PubChem BioAssay AID504793 (Drosophila RNAi Screening Center, 2011)", "assay": "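Whole-genome screen for parts of the DNA damage checkpoint at G2/M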 (primary screen)", "system": "Drosophila S2R+ cells", "reagent": "long dsRNA against Drosophila genes, about 0.25 µg dsRNA per well", "duration": "4 days of dsRNA, then 4 hours of drug before read-out", "challenge": "doxorubicin 0.5 µM for 4 hours to cause double-strand breaks, in cells also given a low, harmless dose of dsRNA against nbs to sensitise the assay", "measured": "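Per-well count of mitotic cells stained for phospho-histone H3 after doxorubicin exposure, used as mitotic index; counts are raw and not normalised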", "scale": "mitotic cells: higher = more cells in mitosis, weaker G2 arrest", "active means": "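a call needs confirmation in secondary tests, with other dsRNAs and a check of mitotic timing without damage, not just a high primary count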", "meaning of the calls": "active = confirmed in follow-up tests; inactive = not confirmed", "note": "The deposit covers about 23,000 reagents; below is a random part of those with a known target gene and a result. In the full data, 62 (0.27%) were called active. 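Calls come from follow-up tests whose scores are not deposited, so confirmed genes may have low counts here; counts are not normalised per plate.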 Raw values vary from plate to plate and are shown uncorrected. Unmarked entries are inactive. Reagent sequences are not shown."}
{"predicted target":"Dsk","dsRNA":"DRSC12347","mitotic cells, replicate 1":5}
{"predicted target":"Tap42","dsRNA":"DRSC02967","mitotic cells, replicate 1":5}
{"predicted target":"Tap42","dsRNA":"DRSC24168","mitotic cells, replicate 1":9}
{"predicted target":"TotE","dsRNA":"DRSC21355","mitotic cells, replicate 1":15}
{"predicted target":"CG33177","dsRNA":"DRSC19949","mitotic cells, replicate 1":9}
{"predicted target":"CG15548","dsRNA":"DRSC15086","mitotic cells, replicate 1":9}
{"predicted target":"CG15548","dsRNA":"DRSC26941","mitotic cells, replicate 1":1}
{"predicted target":"Mvb12","dsRNA":"DRSC20027","mitotic cells, replicate 1":8}
{"predicted target":"Ir48a","dsRNA":"DRSC05301","mitotic cells, replicate 1":3}
{"predicted target":"Gr47a","dsRNA":"DRSC06221","mitotic cells, replicate 1":7}
{"predicted target":"CG9752","dsRNA":"DRSC04562","mitotic cells, replicate 1":6}
{"predicted target":"CG13217","dsRNA":"DRSC06339","mitotic cells, replicate 1":8}
{"predicted target":"mia","dsRNA":"DRSC12137","mitotic cells, replicate 1":2}
{"predicted target":"CG32132 (retired record)","dsRNA":"DRSC23128","mitotic cells, replicate 1":2}
{"predicted target":"mthl9","dsRNA":"DRSC08506","mitotic cells, replicate 1":4}
{"predicted target":"CG46385","dsRNA":"DRSC06557","mitotic cells, replicate 1":10}
{"predicted target":"CG46385","dsRNA":"DRSC25794","mitotic cells, replicate 1":6}
{"predicted target":"Bka","dsRNA":"DRSC02757","mitotic cells, replicate 1":9}
{"predicted target":"RpL26","dsRNA":"DRSC10726","mitotic cells, replicate 1":9}
{"predicted target":"Ubqn","dsRNA":"DRSC19581","mitotic cells, replicate 1":1}
{"predicted target":"Ubqn","dsRNA":"DRSC24055","mitotic cells, replicate 1":5}
{"predicted target":"eIF3a","dsRNA":"DRSC12339","mitotic cells, replicate 1":7}
{"predicted target":"eIF3a","dsRNA":"DRSC28481","mitotic cells, replicate 1":2}
{"predicted target":"CG7634","dsRNA":"DRSC11843","mitotic cells, replicate 1":11}
{"predicted target":"CG10802","dsRNA":"DRSC17762","mitotic cells, replicate 1":6}
{"predicted target":"CG10802","dsRNA":"DRSC29607","mitotic cells, replicate 1":5}
{"predicted target":"CG2736","dsRNA":"DRSC04314","mitotic cells, replicate 1":7}
{"predicted target":"Pcl","dsRNA":"DRSC07503","mitotic cells, replicate 1":5}
{"predicted target":"Pcl","dsRNA":"DRSC24868","mitotic cells, replicate 1":1}
{"predicted target":"CG4570","dsRNA":"DRSC15602","mitotic cells, replicate 1":7}
{"predicted target":"CG10804","dsRNA":"DRSC17764","mitotic cells, replicate 1":5}
{"predicted target":"zpg","dsRNA":"DRSC09702","mitotic cells, replicate 1":12}
{"predicted target":"zpg","dsRNA":"DRSC26258","mitotic cells, replicate 1":5}
{"predicted target":"unc-13-4A","dsRNA":"DRSC10201","mitotic cells, replicate 1":6}
{"predicted target":"unc-13-4A","dsRNA":"DRSC10202","mitotic cells, replicate 1":9}
{"predicted target":"unc-13-4A","dsRNA":"DRSC11013","mitotic cells, replicate 1":4}

Targets above whose target name begins with E or e (2):
{"predicted target":"eIF3a","dsRNA":"DRSC12339","mitotic cells, replicate 1":7}
{"predicted target":"eIF3a","dsRNA":"DRSC28481","mitotic cells, replicate 1":2}
